The nature of one series: clinical. To be noted: both, human, in vivo, 10 mg, time of peak donepezil plasma concentration (Tmax), once daily multiple dosing of 10 mg donepezil.
The conditions of series [1]: 5 mg/day for 28 days in healthy subjects; cited from earlier work.
Setting [2] is: 10 mg donepezil daily, single 10 mg memantine.

Here are results for one compound from patent US20090124659A1, “Combination therapy using 1-aminocyclohexane derivatives and acetylcholinesterase and inhibitors” (priority 2002, published 2009).

Structures are written as SMILES. Where a name gives a salt, the structure may show the parent alone.

By Tmax is commonly meant the time at which the peak concentration occurs. Take `COc1cc2c(cc1OC)C(=O)C(CC1CCN(Cc3ccccc3)CC1)C2` (racemic) [donepezil, (R,S)-1-benzyl-4-[(5,6-dimethoxy-1-indanon)-2yl]-methylpiperidine hydrochloride]: under setting [2], the “decrease of donepezil CL/F with memantine compared to donepezil alone” value is given as 15%, the “increase of mean donepezil AUC0-24 with memantine compared to donepezil alone” value stood at 9% and the “increase of mean donepezil Cmax with memantine compared to donepezil alone” value was determined as 13%. Under “all 19 completers”, the “90% confidence interval for the log-transformed donepezil Cmax (with memantine versus alone)” value is given as 104.2-126.5%. Besides, the Tmax in the series “clinical” (with memantine 10 mg) was determined as 3.3 h. Moreover, in the series “clinical” (without memantine), the Tmax worked out at 3.4 h. In addition, the “peak plasma concentrations (Cmax)” value in series [1] was 34.1 ng/mL.
